In the supplement of paper PMC4635364:
Where a name gives a salt, the structure may show the parent alone. The list shows a part of the results. Repeats in this data set agree poorly, so a single value says little.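 Cells: ReNCell VM human fetal ventral-midbrain neural progenitors, differentiated mitogen-free. Blinded raters compared doublecortin-stained (early neurons) or tyrosine hydroxylase-stained (dopaminergic neurons) images with untreated wells, where 0 means no change. After repeats and both raters were averaged, compounds scoring 2 or above became hits for retesting.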

Test system: ReNCell VM
Experiment: neuronal differentiation score (DCX+ cell fraction vs untreated, manual image score) (score (-3 to 3)); higher = more neuronal differentiation
Conditions: library: Prestwick; 2 uM; 2 weeks

**Q.** Which neuronal differentiation score does the source give for `COc1cccc(C2(O)CCCCC2CN(C)C)c1` (stereo not drawn) [Tramadol hydrochloride] here?
**A.** The neuronal differentiation score was inactive: 0.

**Q.** `CC(C)C[C@H]1C(=O)N2CCC[C@H]2[C@]2(O)O[C@](NC(=O)[C@@H]3C=C4c5cccc6[nH]c(Br)c(c56)C[C@H]4N(C)C3)(C(C)C)C(=O)N12` [Bromocryptine mesylate] was tested. Which neuronal differentiation score did it give?
**A.** The neuronal differentiation score was inactive: 0.

**Q.** `NCC1(CC(=O)O)CCCCC1` [Gabapentin] was tested. Which neuronal differentiation score did it give?
**A.** Its neuronal differentiation score is inactive: 0.

**Q.** For `CC(NC(C)(C)C)C(=O)c1cccc(Cl)c1` (stereo not drawn) [Bupropion hydrochloride], which neuronal differentiation score is on record?
**A.** Its neuronal differentiation score is inactive: 0.

**Q.** How did the neuronal differentiation score turn out when `CC(=O)O[C@H]1C[C@@H]2CC[C@@H]3[C@H](CC[C@@]4(C)[C@H]3C[C@H]([N+]3(C)CCCCC3)[C@@H]4OC(C)=O)[C@@]2(C)C[C@@H]1[N+]1(C)CCCCC1` [Pancuronium bromide] was run?
**A.** The neuronal differentiation score was inactive: 0.

Same assay, conditions: library: Spectrum; 2 uM; 2 weeks

**Q.** `CNC(=O)Oc1ccccc1OC(C)C` was tested. Which neuronal differentiation score did it give?
**A.** The neuronal differentiation score was inactive: 0.

**Q.** With `CC[C@@H](CO)NC(=O)[C@@H]1C=C2c3cccc4[nH]cc(c34)C[C@H]2N(C)C1` as the compound, how does the neuronal differentiation score read?
**A.** Its neuronal differentiation score is inactive: 0.

**Q.** For `CN(C)C(=S)SSC(=S)N(C)C`, which neuronal differentiation score is on record?
**A.** Its neuronal differentiation score is inactive: 0.

**Q.** For `C[N+](C)(C)CCCCCCCCCC[N+](C)(C)C`, which neuronal differentiation score is on record?
**A.** Its neuronal differentiation score is inactive: 0.

**Q.** Which neuronal differentiation score does the source give for `CN1CCN(C(=O)O[C@H]2c3nccnc3C(=O)N2c2ccc(Cl)cn2)CC1` here?
**A.** Its neuronal differentiation score is inactive: 0.

**Q.** With `COP(=O)(OC)OC=C(Cl)Cl` as the compound, how does the neuronal differentiation score read?
**A.** The neuronal differentiation score was inactive: 0.

**Q.** For `CC(C)c1cccc(C(C)C)c1O`, which neuronal differentiation score is on record?
**A.** Its neuronal differentiation score is inactive: 0.

**Q.** With `NCCc1c[nH]c2ccc(O)cc12` as the compound, how does the neuronal differentiation score read?
**A.** Its neuronal differentiation score is inactive: 0.

**Q.** Which neuronal differentiation score does the source give for `COc1ccc(CN2CCNCC2)c(OC)c1OC` here?
**A.** Its neuronal differentiation score is inactive: 0.

**Q.** `COc1cc([C@@H]2c3cc4c(cc3[C@H](O)[C@H]3COC(=O)[C@H]23)OCO4)cc(OC)c1OC` was tested. Which neuronal differentiation score did it give?
**A.** The neuronal differentiation score was inactive: 0.

**Q.** For `C=CCSSCC=C`, which neuronal differentiation score is on record?
**A.** Its neuronal differentiation score is inactive: 0.

**Q.** Which neuronal differentiation score does the source give for `C[C@@H](N)[C@@H](O)c1ccccc1` here?
**A.** Its neuronal differentiation score is inactive: 0.

Same assay, conditions: library: Tocriscreen; 2 uM; 2 weeks

**Q.** `CC(=O)N(C)c1cccc(-c2ccnc3c(C(=O)c4cccs4)cnn23)c1` [Indiplon] was tested. Which neuronal differentiation score did it give?
**A.** The neuronal differentiation score was inactive: 0.

**Q.** How did the neuronal differentiation score turn out when `Cc1nnc2ccc(-c3cccc(C(F)(F)F)c3)nn12` was run?
**A.** Its neuronal differentiation score is inactive: 0.

**Q.** With `O=C1NCN(c2ccccc2)C12CCN(CC1COc3ccccc3O1)CC2` (stereo not drawn) [Spiroxatrine] as the compound, how does the neuronal differentiation score read?
**A.** The neuronal differentiation score was inactive: 0.

**Q.** `Oc1ccc2c3c1O[C@H]1c4[nH]c5ccccc5c4C[C@@]4(O)[C@@H](C2)N(CC2CC2)CC[C@]314` [Naltrindole hydrochloride] was tested. Which neuronal differentiation score did it give?
**A.** Its neuronal differentiation score is inactive: 0.

**Q.** For `CN[C@@H]1C[C@@H](c2ccc(Cl)c(Cl)c2)c2ccccc21` [Indatraline hydrochloride], which neuronal differentiation score is on record?
**A.** Its neuronal differentiation score is inactive: 0.

**Q.** Which neuronal differentiation score does the source give for `N.N.[Cl][Pt][Cl]` [Cisplatin] here?
**A.** The neuronal differentiation score was inactive: 0.

**Q.** With `CCN1C[C@]2(COC(=O)c3ccccc3N3C(=O)C[C@H](C)C3=O)CC[C@H](OC)[C@@]34[C@@H]5C[C@H]6[C@H](OC)[C@@H]5[C@](O)(C[C@@H]6OC)[C@](O)([C@@H](OC)[C@H]23)[C@@H]14` [Methyllycaconitine citrate] as the compound, how does the neuronal differentiation score read?
**A.** The neuronal differentiation score was inactive: 0.

**Q.** How did the neuronal differentiation score turn out when `CC(C)(C)NCC(O)COc1cccc2[nH]c(C#N)cc12` (stereo not drawn) [Cyanopindolol hemifumarate] was run?
**A.** The neuronal differentiation score was inactive: 0.

**Q.** Which neuronal differentiation score does the source give for `O=C1CN=C(c2cccc(Br)c2)c2oc3ccccc3c2N1` here?
**A.** Its neuronal differentiation score is inactive: 0.

**Q.** How did the neuronal differentiation score turn out when `c1ccc(CCCN2CCN(CCOC(c3ccccc3)c3ccccc3)CC2)cc1` was run?
**A.** The neuronal differentiation score was inactive: 0.

**Q.** Which neuronal differentiation score does the source give for `C=CCN1CC[C@]2(C)c3cc(O)ccc3C[C@H]1C2C` (single isomer, unassigned; (+)) here?
**A.** Its neuronal differentiation score is inactive: 0.

**Q.** For `CCOC(=O)c1ncn2c1[C@@H]1CCCN1C(=O)c1cc(OC)ccc1-2`, which neuronal differentiation score is on record?
**A.** The neuronal differentiation score was inactive: 0.

**Q.** How did the neuronal differentiation score turn out when `CC(C)[C@@]1(NC(=O)[C@@H]2C[C@@H]3c4cccc5[nH]cc(c45)C[C@H]3N(C)C2)O[C@@]2(O)[C@@H]3CCCN3C(=O)[C@H](Cc3ccccc3)N2C1=O` [Dihydroergocristine mesylate] was run?
**A.** Its neuronal differentiation score is inactive: 0.

**Q.** `CCCN(CCC)C1Cc2cc(OC)c(OC)cc2C1` was tested. Which neuronal differentiation score did it give?
**A.** Its neuronal differentiation score is inactive: 0.

Test system: ReNCell VM
Experiment: dopaminergic neuron differentiation score (TH+ cell fraction vs untreated, manual image score) (score (0 to 3)); higher = more TH+ dopaminergic neuron differentiation
Conditions: library: LOPAC; 2 uM; 4 weeks; BDNF 10 ng/ml + GDNF 10 ng/ml

**Q.** `Cc1nnc2ccc(-c3cccc(C(F)(F)F)c3)nn12` was tested. Which “dopaminergic neuron differentiation score” value did it give?
**A.** The value was inactive: 0.

**Q.** Which “dopaminergic neuron differentiation score” value does the source give for `O=C1NCN(c2ccccc2)C12CCN(CC1COc3ccccc3O1)CC2` (stereo not drawn) [Spiroxatrine] here?
**A.** Its value is inactive: 0.

**Q.** For `Oc1ccc2c3c1O[C@H]1c4[nH]c5ccccc5c4C[C@@]4(O)[C@@H](C2)N(CC2CC2)CC[C@]314` [Naltrindole hydrochloride], which “dopaminergic neuron differentiation score” value is on record?
**A.** The value was inactive: 1.

**Q.** For `COC(=O)N1CCN(C(=O)Cc2ccc(Cl)c(Cl)c2)C(CN2CCCC2)C1` (stereo not drawn), which “dopaminergic neuron differentiation score” value is on record?
**A.** The value was inactive: 0.

**Q.** For `CN[C@@H]1C[C@@H](c2ccc(Cl)c(Cl)c2)c2ccccc21` [Indatraline hydrochloride], which “dopaminergic neuron differentiation score” value is on record?
**A.** Its value is inactive: 0.

**Q.** `N.N.[Cl][Pt][Cl]` [Cisplatin] was tested. Which “dopaminergic neuron differentiation score” value did it give?
**A.** The value was inactive: 0.

**Q.** With `Cc1ncc(CNC(=O)N(CCCl)N=O)c(N)n1` [Nimustine hydrochloride] as the compound, how does the “dopaminergic neuron differentiation score” value read?
**A.** The value was inactive: 0.

**Q.** Which “dopaminergic neuron differentiation score” value does the source give for `COC(=O)C1=CCCN(C)C1` [Arecoline hydrobromide] here?
**A.** Its value is inactive: 0.

**Q.** `c1ccc(CCCN2CCN(CCOC(c3ccccc3)c3ccccc3)CC2)cc1` was tested. Which “dopaminergic neuron differentiation score” value did it give?
**A.** The value was inactive: 0.

**Q.** With `NCC1(CC(=O)O)CCCCC1` [Gabapentin] as the compound, how does the “dopaminergic neuron differentiation score” value read?
**A.** The value was inactive: 0.

**Q.** `CC(NC(C)(C)C)C(=O)c1cccc(Cl)c1` (stereo not drawn) [Bupropion hydrochloride] was tested. Which “dopaminergic neuron differentiation score” value did it give?
**A.** Its value is inactive: 0.

**Q.** Which “dopaminergic neuron differentiation score” value does the source give for `Cc1c2ccncc2c(C)c2c1[nH]c1ccccc12` [Ellipticine] here?
**A.** The value was inactive: 0.

**Q.** For `CCCN(CCC)[C@@H]1CCc2cccc(O)c2C1` [R-(+)-8-Hydroxy-DPAT hydrobromide], which “dopaminergic neuron differentiation score” value is on record?
**A.** The value was inactive: 0.

**Q.** Which “dopaminergic neuron differentiation score” value does the source give for `CC(=O)O[C@H]1C[C@@H]2CC[C@@H]3[C@H](CC[C@@]4(C)[C@H]3C[C@H]([N+]3(C)CCCCC3)[C@@H]4OC(C)=O)[C@@]2(C)C[C@@H]1[N+]1(C)CCCCC1` [Pancuronium bromide] here?
**A.** The value was inactive: 0.

**Q.** `COc1ccccc1N1CCNCC1` [1-(2-Methoxyphenyl)piperazine hydrochloride] was tested. Which “dopaminergic neuron differentiation score” value did it give?
**A.** The value was inactive: 1.

**Q.** Which “dopaminergic neuron differentiation score” value does the source give for `CCOC(=O)c1ncn2c1[C@@H]1CCCN1C(=O)c1cc(OC)ccc1-2` here?
**A.** Its value is inactive: 0.

**Q.** How did the “dopaminergic neuron differentiation score” value turn out when `CCCN(CCC)C1Cc2cc(OC)c(OC)cc2C1` was run?
**A.** The value was inactive: 0.
